# PubChem BioAssay AID330 (DTP/NCI, 2004)
# The list is a part of this screen's results and no random one: it is rich in T/C values a quarter to a half above the control, in often repeated tests (any T/C) and in doses without a T/C. Other doses and runs of a compound stand elsewhere. T/C gives the treated animals as a percentage of the vehicle group. Some doses have a count of surviving animals in place of a T/C: the source files T/C as zero there, which appears to mark a toxic dose or a test without result, not a measured value. Some survivor counts are full or nearly so, which does not show that the dose was tolerated: the source hardly ever lists a survival T/C far under the control, and the zero likely stands for such cases as well. Survivors were counted at the toxicity check, usually on the fifth day, unless a day is given; later deaths do not show. Schedule codes are those of the source, taken here to give the interval after Q, in days (D) or hours (H), and the number of doses after X. Some doses were run more than once; the results are listed from low to high. For survival time, the PubChem record calls one and a half times the control and up active, and a quarter to a half above the control has no call in these data; cut-offs in other NCI protocols can differ. Some T/C values carry the count of animals alive at the toxicity check (mostly the fifth day); where none is given, no animal had died by that day.
# System: P388 leukemia ip, CD2F1 mice, survival T/C
# Assay: NCI In Vivo Anticancer Drug Screen. Data for tumor model P388 Leukemia (intraperitoneal) in CD2F1 (CDF1) mice
# Conditions: T/C endpoint: median survival time, higher T/C = longer survival
# [1] = dose: 3.13 mg/kg/injection, schedule: Q01DX009 (ip), vehicle: water
# [2] = dose: 6.25 mg/kg/injection, schedule: Q01DX009 (ip), vehicle: water
# [3] = dose: 25.0 mg/kg/injection, schedule: Q01DX009 (ip), vehicle: water
# [4] = dose: 25.0 mg/kg/injection, schedule: Q01DX009 (ip), vehicle: saline with Tween-80
# [5] = dose: 50.0 mg/kg/injection, schedule: Q01DX009 (ip), vehicle: saline with Tween-80
# [6] = dose: 200.0 mg/kg/injection, schedule: Q01DX009 (ip), vehicle: Klucel (hydroxypropylcellulose) (HPC)
# [7] = dose: 240.0 mg/kg/injection, schedule: Q01DX005 (ip), vehicle: saline with Tween-80
# [8] = dose: 200.0 mg/kg/injection, schedule: Q01DX005 (ip), vehicle: Klucel (hydroxypropylcellulose) (HPC)
# [9] = dose: 50.0 mg/kg/injection, schedule: Q01DX005 (ip), vehicle: Klucel (hydroxypropylcellulose) (HPC)
smiles,measurement,setting,value
COc1cccc2c1C(=O)c1c(O)c3c(c(O)c1C2=O)C[C@@](O)(C(=O)CSc1ccccc1)C[C@@H]3OC1CC(N)C(O)C(C)O1 (stereo partly specified),T/C,"dose: 1.56 mg/kg/injection, schedule: Q01DX009 (ip), vehicle: water",130 and 137 % of control
same,T/C,[1],138 [5 of 6 alive] and 140 % of control
same,T/C,"dose: 6.25 mg/kg/injection, schedule: Q01DX001 (ip), vehicle: water",127 % of control
same,T/C,[2],131 and 138 % of control
same,T/C,"dose: 12.5 mg/kg/injection, schedule: Q01DX001 (ip), vehicle: water",127 % of control
same,survivor count,"dose: 25.0 mg/kg/injection, schedule: Q01DX001 (ip), vehicle: water",2 of 6
same,survivor count,[3],1 of 6
same,survivor count,"dose: 50.0 mg/kg/injection, schedule: Q01DX001 (ip), vehicle: water",0 of 6
same,survivor count,"dose: 100.0 mg/kg/injection, schedule: Q01DX001 (ip), vehicle: water",0 of 6
CN(C)c1ccc(NN=O)nc1,T/C,[1],137 and 144 % of control
same,T/C,[2],139 % of control
same,T/C,"dose: 12.5 mg/kg/injection, schedule: Q01DX009 (ip), vehicle: water",141 % of control
same,survivor count,[3],5 of 6 and 6 of 6
same,survivor count,"dose: 50.0 mg/kg/injection, schedule: Q01DX009 (ip), vehicle: water",0 of 6
COCCn1c(=O)[nH]c(=O)c2c(Nc3ccccc3)snc21,survivor count,[4],5 of 6
same,survivor count,[5],6 of 6
same,T/C,"dose: 200.0 mg/kg/injection, schedule: Q01DX009 (ip), vehicle: saline",140 % of control
CCCCCC(C)N (stereo unspecified),survivor count,"dose: 50.0 mg/kg/injection, schedule: Q01DX009 (ip), vehicle: saline",2 of 6
COc1ccc(CCN2CCC(CC3CCCCN3)CC2)cc1OC (stereo unspecified),survivor count,"dose: 200.0 mg/kg/injection, schedule: Q01DX009 (ip), vehicle: distilled water + alcohol",3 of 6
NC(=O)c1c[n+]([O-])ccc1[N+](=O)[O-],T/C,"dose: 25.0 mg/kg/injection, schedule: Q01DX009 (ip), vehicle: Klucel (hydroxypropylcellulose) (HPC)",129 % of control
same,T/C,"dose: 50.0 mg/kg/injection, schedule: Q01DX009 (ip), vehicle: Klucel (hydroxypropylcellulose) (HPC)",132 % of control
same,survivor count,"dose: 100.0 mg/kg/injection, schedule: Q01DX009 (ip), vehicle: Klucel (hydroxypropylcellulose) (HPC)",1 of 6
same,survivor count,[6],0 of 6
O=C(Oc1ccc[nH]c1=O)C1CC1,T/C,"dose: 400.0 mg/kg/injection, schedule: Q01DX009 (ip), vehicle: saline",126 % of control [4 of 6 alive]
Nc1nc(-c2ccccn2)cc2ccccc12,survivor count,[7],0 of 6
COc1ccc(-n2c3c(c4c(N)ncnc42)CCCC3)cc1,survivor count,[7],6 of 6
O=C(O)COc1cc(Cl)c(Cl)cc1Cl,survivor count,"dose: 400.0 mg/kg/injection, schedule: Q01DX005 (ip), vehicle: saline with Tween-80",0 of 6
CC(C)C1CC(O)C(C)C(CN2CCCCC2)C1 (stereo unspecified),survivor count,[8],3 of 6
CCOc1c(N=Nc2ccc(C)cc2)c(C)nn1C(N)=S,survivor count,"dose: 60.0 mg/kg/injection, schedule: Q01DX005 (ip), vehicle: Klucel + Tween-80",0 of 6
same,survivor count,"dose: 120.0 mg/kg/injection, schedule: Q01DX005 (ip), vehicle: Klucel + Tween-80",0 of 6
same,survivor count,"dose: 240.0 mg/kg/injection, schedule: Q01DX005 (ip), vehicle: Klucel + Tween-80",0 of 6
N#C/C(=C/c1cccs1)c1ccc(Cl)cc1,survivor count,"dose: 400.0 mg/kg/injection, schedule: Q04DX003 (ip), vehicle: Klucel (hydroxypropylcellulose) (HPC)",6 of 6
Cc1cccc(-c2nc(=S)nc(N)s2)c1,survivor count,"dose: 400.0 mg/kg/injection, schedule: Q01DX001 (ip), vehicle: saline with Tween-80",0 of 6
CC1CN2CC(C)O[Si](CC[Si](C)(C)C)(O1)OC(C)C2 (stereo unspecified),survivor count,[8],5 of 6
COc1cc(C)c(/C=C/C(C)=C/c2cc(C)cc(=O)o2)c(C)c1C,survivor count,[9],6 of 6
same,survivor count,[8],6 of 6
COC(=O)c1cccc2cccc(C(=O)N(C)CCN(C)C)c12,survivor count,[7],6 of 6
O=C(Nc1ccccc1)OC(CN1CCCCC1)C(CN1CCCCC1)OC(=O)Nc1ccccc1 (stereo unspecified),survivor count,[9],5 of 5 and 6 of 6
same,survivor count,"dose: 100.0 mg/kg/injection, schedule: Q01DX005 (ip), vehicle: Klucel (hydroxypropylcellulose) (HPC)",5 of 5
CCC[C@@H]1[C@@H](CCC)N1C(=N)OCC,survivor count,"dose: 100.0 mg/kg/injection, schedule: Q01DX005 (ip), vehicle: saline",0 of 6
same,survivor count,"dose: 200.0 mg/kg/injection, schedule: Q01DX005 (ip), vehicle: saline",0 of 6
CCCC[N+](CC)(CC)CCCNC1=CC(=O)C(NCCC[N+](CC)(CC)CCCC)=CC1=O,survivor count,"dose: 1.56 mg/kg/injection, schedule: Q04DX002 (ip), vehicle: saline",0 of 6
same,survivor count,"dose: 3.12 mg/kg/injection, schedule: Q04DX002 (ip), vehicle: saline",0 of 6
same,survivor count,"dose: 6.25 mg/kg/injection, schedule: Q04DX002 (ip), vehicle: saline",0 of 6
same,survivor count,"dose: 12.5 mg/kg/injection, schedule: Q04DX002 (ip), vehicle: saline",0 of 6
same,survivor count,"dose: 25.0 mg/kg/injection, schedule: Q04DX002 (ip), vehicle: saline",0 of 6
same,survivor count,"dose: 50.0 mg/kg/injection, schedule: Q04DX002 (ip), vehicle: saline",0 of 6
same,survivor count,"dose: 100.0 mg/kg/injection, schedule: Q04DX002 (ip), vehicle: saline",0 of 6
BrC1CC(Br)c2c1c1c(c3c2C(Br)CC3Br)C(Br)CC1Br (stereo unspecified),T/C,[4],127 % of control
same,T/C,[5],147 % of control
CC(=O)OC1CC(O)C23COC(O)C1(C)C2CC(O)C1(C)C3C(=O)C(O)C2(C)C(c3ccoc3)CC3OC321 (stereo unspecified),survivor count,"dose: 5.0 mg/kg/injection, schedule: Q01DX009 (ip), vehicle: Klucel (hydroxypropylcellulose) (HPC)",0 of 6
same,survivor count,"dose: 10.0 mg/kg/injection, schedule: Q01DX009 (ip), vehicle: Klucel (hydroxypropylcellulose) (HPC)",0 of 6
same,survivor count,"dose: 20.0 mg/kg/injection, schedule: Q01DX009 (ip), vehicle: Klucel (hydroxypropylcellulose) (HPC)",0 of 6
COc1cc(C2C(C(C)=O)=C(C)Oc3cc4c(cc32)OCO4)cc(OC)c1OC (stereo unspecified),survivor count,"dose: 120.0 mg/kg/injection, schedule: Q01DX005 (ip), vehicle: saline with Tween-80",6 of 6
CCN(CC)CCCC(Nc1c2ccc(Cl)cc2nc2ccc(OC)cc12)c1ccc(F)cc1 (stereo unspecified),survivor count,"dose: 100.0 mg/kg/injection, schedule: Q01DX005 (ip), vehicle: saline with Tween-80",3 of 5
same,survivor count,"dose: 200.0 mg/kg/injection, schedule: Q01DX005 (ip), vehicle: saline with Tween-80",0 of 5
CS1(=O)=NC(=NC#N)c2ccccc21 (stereo unspecified),survivor count,[6],5 of 6
COc1cc2ccc1-c1cc(ccc1O)CC1c3cc4c(cc3CCN1C)Oc1c(OC)cc3c(c1O4)C(C2)N(C)CC3 (stereo unspecified),survivor count,"dose: 120.0 mg/kg/injection, schedule: Q01DX005 (ip), vehicle: Klucel (hydroxypropylcellulose) (HPC)",4 of 6
same,survivor count,"dose: 240.0 mg/kg/injection, schedule: Q01DX005 (ip), vehicle: Klucel (hydroxypropylcellulose) (HPC)",0 of 6
N#CC(c1ccccc1)c1nccc2ccccc12 (stereo unspecified),survivor count,"dose: 400.0 mg/kg/injection, schedule: Q04DX002 (ip), vehicle: saline with Tween-80",0 of 6
O=C(CCCN1CCC(O)(c2cccc(C(F)(F)F)c2)CC1)c1ccc(F)cc1,survivor count,"dose: 150.0 mg/kg/injection, schedule: Q04DX003 (ip), vehicle: Klucel (hydroxypropylcellulose) (HPC)",0 of 6
C=C1N(c2nc(Cl)nc(Cl)n2)c2ccccc2C1(C)C,survivor count,"dose: 100.0 mg/kg/injection, schedule: Q01DX009 (ip), vehicle: saline with Tween-80",5 of 6
same,survivor count,"dose: 200.0 mg/kg/injection, schedule: Q01DX009 (ip), vehicle: saline with Tween-80",1 of 6
Cc1ccc(NC(=O)Oc2ccc(Cl)c(C)c2)c([N+](=O)[O-])c1,survivor count,[5],6 of 6
CC(C)CC1([N+](=O)[O-])CN(C)CC2CCCCN2C1 (stereo unspecified),survivor count,"dose: 200.0 mg/kg/injection, schedule: Q04DX002 (ip), vehicle: saline",2 of 6
same,survivor count,"dose: 400.0 mg/kg/injection, schedule: Q04DX002 (ip), vehicle: saline",0 of 6
